Assay results from patent publication US20250019438A1 (AstraZeneca / MedImmune, published 2025).
Results are given in words; binding and its absence hold for the method and conditions named. Some results given as binding are weak or reduced against the parent protein; the word gives no strength.

Chains of the proteins cited; added tags and fusions are not shown. Lines headed by an entry give the natural chain unless they say otherwise; changes in a name come on top.
UniProt Q95LI5: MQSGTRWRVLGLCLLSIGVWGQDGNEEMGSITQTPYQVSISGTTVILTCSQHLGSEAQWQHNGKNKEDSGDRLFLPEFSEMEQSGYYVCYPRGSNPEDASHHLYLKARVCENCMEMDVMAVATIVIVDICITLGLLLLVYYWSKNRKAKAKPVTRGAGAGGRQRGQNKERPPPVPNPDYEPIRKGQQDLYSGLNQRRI

Columns and labels:
[1] = molecular target: T1, Cynomolgus monkey CD3 on HSC-F cells (cynomolgus monkey, UniProt Q95LI5 22-198; Q95LI8 22-171; Q95LI7 23-181); assay: flow cytometry on HSC-F cells
T1 construct: whole, on cells; CD3 complex; also called cyCD3+; cynomolgus CD3+ cells

[2] = molecular target: T1, Cynomolgus monkey CD3 on HSC-F cells; assay: flow cytometry on HSC-F cells (cyCD3+), detection with Alexa Fluor 647 goat F(ab')2 anti-human IgG Fcγ
[3] = molecular target: T1, Cynomolgus monkey CD3 on HSC-F cells; assay: flow cytometry on HSC-F cells (cyCD3++), detection with Alexa Fluor 647 goat F(ab')2 anti-human IgG Fcγ

binding [1]: binds
binding [2]: binds
binding [3]: binds
B1: AZ Vκ+AZ VH IgG1-TM (antibody, V domains shown)
VH: QVQLVESGGGVVQPGRSLRLSCAASGFTFTKAWMHWVRQAPGKQLEWVAQIKDKSNSYATYYADSVKGRFTISRDDSKNTLYLQMNSLRAEDTAVYYCRGVYYALSPFDYWGQGTLVTVSS
VL: DIVMTQTPLSLSVTPGQPASISCKSSQSLVHNNANTYLSWYLQKPGQSPQSLIYKVSNRFSGVPDRFSGSGSGTDFTLKISRVEAEDVGVYYCGQGTQYPFTFGSGTKVEIK
notes: also called parental AZ Vκ+AZ VH IgG1-TM; parental anti-CD3 antibody
